The record followed here is the supplement of paper PMC8256030.

SMILES strings stand for the structures. “And” between values parts separate entries of the source, which are not always exact repeats. Equal entries are not always repeated. The list shows a part of the results. Repeats in this data set agree poorly, so a single value says little.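 HEK293T cells were given each compound shortly before transfection with a reporter in which red mCherry is followed by the SARS-CoV-2 frameshift element and then GFP in the −1 frame, so GFP appears only after frameshifting.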

The test system of the assay is HEK293T. Briefly: percent viability (nuclei count) relative to control; higher = more viable cells. The following applies: 10 µM; 24 h.
`CCOc1ccc2nc(S(N)(=O)=O)sc2c1`: the percent viability amounted to 242%.
The figure for `NC(=O)CCCCC1CCSS1` (stereo not given) is 284%; for `CC1(C)[C@@H](O)CC[C@]2(C)[C@H]3C(=O)C=C4[C@@H]5C[C@@](C)(C(=O)O)CC[C@]5(C)CC[C@@]4(C)[C@]3(C)CC[C@@H]12` it is 17.3%.
As for `CCC(=O)O[C@]1(C(=O)CCl)[C@@H](C)C[C@H]2[C@@H]3C[C@H](F)C4=CC(=O)C=C[C@]4(C)[C@@]3(F)[C@@H](O)C[C@@]21C` [Ultravate], the figure is 166%.
On to `CC(N/C(=N\C#N)Nc1ccncc1)C(C)(C)C` (stereo not given), for which the percent viability was 166%.
As for `O=C(O)c1ccc(-n2nc(-c3ccccc3O)nc2-c2ccccc2O)cc1` [Exjade], the figure is 238%; as for `O=C(O)C[C@H](O)C[C@H](O)/C=C/c1c(C2CC2)nc2ccccc2c1-c1ccc(F)cc1`, 139%; as for `CCC1C(=O)NC(=O)C1(C)c1ccccc1` (stereo not given) [fenimide], 98.8%.
The figure for `C=Cc1cc(O)cc2nc(-c3ccc(O)c(F)c3)oc12` [prinaberel] is 47.1%; for `CC1=C(CC(=O)O)c2cc(F)ccc2/C1=C\c1ccc([S+](C)[O-])cc1` (stereo not given) it is 147%; for `CC(=O)c1ccc2c(c1)N(CCCN1CCC(CCO)CC1)c1ccccc1S2` [piperacetazine] it is 353%.
The figure for `NC(=O)NO` [hydroxycarbamide] is 185%; for `CN1CCC(OC(=O)C(Oc2ccc(Cl)cc2)Oc2ccc(Cl)cc2)CC1` [lifibrate] it is 182%; for `CCC(C)(Oc1ccc(C2(c3ccc(OC(C)(CC)C(=O)O)cc3)CCCCC2)cc1)C(=O)O` (stereo not given) [Clinofibrate] it is 311%.
As for `Cc1cc(C(=O)NCCc2ccc(S(=O)(=O)NC(=O)NN3CCCCCC3)cc2)no1` [Glisoxepide], the percent viability is 42%.
With `CC(=O)OCC(=O)[C@@]1(OC(C)=O)[C@@H](C)C[C@H]2[C@@H]3C[C@H](F)C4=CC(=O)C=C[C@]4(C)[C@@]3(F)[C@@H](O)C[C@@]21C`, the percent viability stood at 297%.
The figure for `COc1cc2c3cc1Oc1cc(ccc1O)C[C@@H]1c4c(cc(OC)c(O)c4Oc4ccc(cc4)C[C@@H]3N(C)CC2)CC[N+]1(C)C` [(+)-Tubocuraraine chloride] is 170%; for `CN1CCC(CN2c3ccccc3Sc3ccccc32)C1` (stereo not given) [methdilazine] it is 446%.
For the compound `OCc1cc(C(O)CNCCCCCCOCCCCc2ccccc2)ccc1O` (stereo not given) [salmeterol], the percent viability worked out at 325%.
In the case of `O=C(O)CC/C=C\CC[C@@H]1[C@@H](N2CCCCC2)[C@@H](O)C[C@@H]1OCc1ccc(-c2ccccc2)cc1` [vapiprost], the percent viability is 106%.
Regarding `OC(CNCC(O)C1CCc2cc(F)ccc2O1)C1CCc2cc(F)ccc2O1` (stereo not given) [nebivolol], the percent viability was 292% and 277%.
The figure for `CN[C@H]1C(=O)N[C@@H]2Cc3ccc(cc3)Oc3cc4cc(c3O[C@@H]3O[C@H](C(=O)O)[C@@H](O)[C@H](O)[C@H]3NC(=O)CCCCCCCCC(C)C)Oc3ccc(cc3Cl)[C@@H](O)[C@@H]3NC(=O)[C@H](NC(=O)[C@@H]4NC(=O)[C@@H](NC2=O)c2cc(cc(O)c2Cl)Oc2cc1ccc2O)c1ccc(O)c(c1)-c1c(O[C@H]2O[C@H](CO)[C@@H](O)[C@H](O)[C@@H]2O)cc(O)cc1[C@@H](C(=O)NCCCN(C)C)NC3=O` [dalbavancin] is 138%; for `C/N=C(/NC)NCc1ccc(OC)cc1` [meobentine] it is 196%; for `CN(C/C=C/C#CC(C)(C)C)Cc1cccc2ccccc12` [terbinafine] it is 239% and 181% and 173%.
As for `O=C(O)C1CSCN1` (stereo not given) [timonacic], the figure is 373%.
As for `C[C@H]1CN(C[C@H](Cc2ccccc2)C(=O)NCC(=O)O)CC[C@@]1(C)c1cccc(O)c1` [Entereg], the figure is 205%; as for `COc1ccc2c(c1OC)C(=O)O[C@@H]2[C@H]1c2c(cc3c(c2OC)OCO3)CCN1C`, 169%.
For the compound `CN1CC(O)c2cc(N=NC(N)=O)c(O)cc21` (stereo not given) [carbazochrome], the percent viability was determined as 175%.
As for `CCOc1ccc(NC(=O)CC(C)O)cc1` (stereo not given) [bucetin], the percent viability worked out at 386%.
As for `O=C1O[C@H]([C@@H](O)CO)C(O)=C1O` [Vitamin C], the figure is 25.9%.
The figure for `CC(C)[C@H]1CC[C@H](C(=O)N[C@H](Cc2ccccc2)C(=O)O)CC1` [Nateglinide] is 155%; for `C[C@H](N[C@@H](CCc1ccccc1)C(=O)O)C(=O)N1Cc2ccccc2C[C@H]1C(=O)O` [quinaprilat] it is 141%; for `CCOC(=S)SSC(=S)OCC` [dixanthogen] it is 92.7%.
As for `O=C(Oc1ccc2c(c1)CCCN2C(=O)C(Cl)Cl)c1ccco1` [quinfamide], the figure is 434%; as for `CO/N=C(\C(=O)N[C@@H]1C(=O)N2C(C(=O)O)=C(C[N+]3(C)CCCC3)CS[C@H]12)c1csc(N)n1` [Maxipeme], 247%.
